Patent US10668094B2, “Selective inhibitors of Alpha2-containing isoforms of Na,K-ATPase and use thereof for reduction of intraocular pressure” (Yeda Research and Development Co. Ltd., priority 2015, dated 2020)

Tested on: Na,K-ATPase in bovine ciliary NPE cells
Format: biochemical

CC1CN(C2CCC2)CCC(O[C@@H]2[C@H](C)O[C@@H](O[C@@H]3[C@H](C)O[C@@H](O[C@H]4CC[C@@]5(C)C(CCC6C5C[C@H](O)[C@]5(C)[C@@H](C7=CC(=O)OC7)CC[C@]65O)C4)C[C@@H]3O)C[C@@H]2O)O1 (stereo partly shown) [DcB]
A α1 (2 sites model, fraction of α1 site): 0.34 ± 0.097
A α2 (2 sites model, fraction of α2 site): 0.66 ± 0.090
best fit proportion α1 (two site model): 34%
best fit proportion α2 (two site model): 66%
